Experimental data from patent US7189679B2, “Herbicidal 3-amino-2-thiomethylbenzoylpyrazoles” (Bayer CropScience GmbH, priority 2004, dated 2007).
Some entries share one result that the patent states for a list of compounds.

Key:
Test in all cases: Pre-emergence weed action
Assay type in all cases: in vivo
Details in all cases: 320 g/ha, visual scoring after 3 to 4 weeks vs untreated controls
Amaranthus retroflexus = test system: Amaranthus retroflexus
Veronica persica = test system: Veronica persica
Abutilon theophrasti = test system: Abutilon theophrasti
Chenopodium album = test system: Chenopodium album
Stellaria media = test system: Stellaria media

Cc1nn(C)c(O)c1C(=O)c1ccc(Br)c(N)c1CS(C)(=O)=O [compound 3]
at least 90%: action against Amaranthus retroflexus (Amaranthus retroflexus) | action against Veronica persica (Veronica persica) | action against Abutilon theophrasti (Abutilon theophrasti) | action against Chenopodium album (Chenopodium album) | action against Stellaria media (Stellaria media)

Cn1nc(C2CC2)c(C(=O)c2ccc(Br)c(N)c2CS(C)(=O)=O)c1O [compound 2]
at least 90%: action against Amaranthus retroflexus (Amaranthus retroflexus) | action against Veronica persica (Veronica persica) | action against Abutilon theophrasti (Abutilon theophrasti) | action against Chenopodium album (Chenopodium album) | action against Stellaria media (Stellaria media)
